No constants are given. Whether binding was seen depends on the method and setting. For part of these data: Binding seen in cells or lysates may run through a third protein. Some entries that bind do so weakly or less than the wild type. For part of these data: Tags and fused reporters may be left off the sequences shown.
What was measured:
[1] = biological target: T1, mouse CD5 antigen-like with c-MYC tag (pCMV3-CD5L-c-MYC) (mouse) (UniProt Q9QWK4); experiment: ELISA; p19/CD5L-specific sandwich ELISA (anti-p19 5B2 capture, biotin-conjugated anti-CD5L detection) on culture supernatants of transiently transfected HEK293T cells, 3 days
T1 sequence: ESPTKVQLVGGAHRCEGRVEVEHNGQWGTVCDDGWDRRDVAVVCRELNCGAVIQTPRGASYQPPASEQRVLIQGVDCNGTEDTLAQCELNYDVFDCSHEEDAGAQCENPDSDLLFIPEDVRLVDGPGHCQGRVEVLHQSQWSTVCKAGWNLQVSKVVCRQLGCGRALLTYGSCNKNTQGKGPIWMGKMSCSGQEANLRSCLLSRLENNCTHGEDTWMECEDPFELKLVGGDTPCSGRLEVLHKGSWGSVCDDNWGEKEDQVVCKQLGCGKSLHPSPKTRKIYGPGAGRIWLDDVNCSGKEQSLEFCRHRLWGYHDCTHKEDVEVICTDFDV

[2] = biological target: T1, mouse CD5 antigen-like with c-MYC tag (pCMV3-CD5L-c-MYC) (mouse); experiment: co-IP; HEK293-F cells transiently cotransfected, 3 days; cell lysates (1% Nonidet P-40, 10 mM Tris-HCl pH 7.5, 150 mM NaCl, 1 mM EDTA) or culture supernatants; IP with anti-FLAG (M2) or anti-c-MYC (9E10) on protein G-Sepharose, 2 h to overnight at 4 °C; reducing SDS-PAGE; western blot with biotin-conjugated anti-c-MYC or anti-p19
[3] = biological target: T2, mouse IL-12/IL-23 p40 with c-MYC tag (mouse) (UniProt P43432); experiment: as above
T2 sequence: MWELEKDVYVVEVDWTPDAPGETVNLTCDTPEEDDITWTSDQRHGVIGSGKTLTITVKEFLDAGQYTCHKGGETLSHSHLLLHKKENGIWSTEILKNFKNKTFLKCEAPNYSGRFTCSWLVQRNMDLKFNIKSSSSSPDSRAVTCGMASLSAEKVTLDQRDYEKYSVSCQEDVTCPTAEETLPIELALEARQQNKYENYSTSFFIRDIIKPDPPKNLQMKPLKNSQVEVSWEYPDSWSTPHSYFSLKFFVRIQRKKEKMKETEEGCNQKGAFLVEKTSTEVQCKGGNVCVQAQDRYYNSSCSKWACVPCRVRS

[4] = biological target: T3, endogenous mouse CD5 antigen-like (mouse (endogenous in CD4+ T cells and serum of C57BL/6 mice)) (UniProt Q9QWK4); experiment: co-IP; culture supernatant of naive CD4+ T cells activated with anti-CD3 and anti-CD28 under pathogenic Th17-polarizing conditions for 3 days, concentrated about 8 times; IP with anti-CD5L (D-11); western blot with biotin-conjugated anti-p19
T3 sequence: T1 sequence

[5] = biological target: T3, endogenous mouse CD5 antigen-like (mouse (endogenous in CD4+ T cells and serum of C57BL/6 mice)); experiment: ELISA; p19/CD5L-specific sandwich ELISA on serum of WT mice taken over time during EAE
[6] = biological target: T3, endogenous mouse CD5 antigen-like (mouse (endogenous in CD4+ T cells and serum of C57BL/6 mice)); experiment: ELISA; p19/CD5L-specific sandwich ELISA on culture supernatants of naive CD4+ T cells activated under Th, Th0 and pathogenic Th17-polarizing conditions for 3 days, concentrated about 10 times

Measured: binding

B1: mouse IL-23 p19 with C-terminal 3×FLAG (p3×FLAG-CMV-14-p19) (protein, UniProt Q9EQ14 22-196)
chain: VPRSSSPDWAQCQQLSRNLCMLAWNAHAPAGHMNLLREEEDEETKNNVPRIQCEDGCDPQGLKDNSQFCLQRIRQGLAFYKHLLDSDIFKGEPALLPDSPMEQLHTSLLGLSQLLQPEDHPRETQQMPSLSSSQQWQRPLLRSKILRSLQAFLAIAARVFAHGAATLTEPLVPTA
binds: [1] | [2] | [3]

B2: endogenous mouse IL-23 p19 (protein, UniProt Q9EQ14 22-196)
chain: B1 chain
binds: [4] | [5] | [6]

Source: article PMC7933155, “IL-23p19 and CD5 antigen-like form a possible novel heterodimeric cytokine and contribute to experimental autoimmune encephalomyelitis development” (Scientific Reports, 2021)
